From US20190381086A1, “INHIBITION OF NEDDYLATION USING GLYCYL-tRNA SYNTHETASE INHIBITORS” (The Scripps Research Institute, priority 2015, published 2019) come the findings set out here.

Sequences of proteins named here, by UniProt entry; tags and fusion partners are left off. Residues count along the entry.
UniProt Q15843, residues 1-76: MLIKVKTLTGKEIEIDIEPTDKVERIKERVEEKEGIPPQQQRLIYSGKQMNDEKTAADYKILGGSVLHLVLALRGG

No constants are given. Whether binding was seen depends on the method and setting. For some of these results: Binding seen in cells or lysates may run through a third protein. Some binding calls cover weakened binding; strength is not graded here. For some of these results: Where a sequence is shown, tags or fusion partners need not be part of it.

Test [1] deals with NEDD8 (UniProt Q15843). The test can be described thus: His-tag pull-down.
The target in test [2] is NEDD8 (UniProt Q15843). Briefly: His-tag pull-down on nickel-NTA beads, blot anti-NEDD8.
Test [3] has as its target E1 for neddylation, APPBP1/UBA3 heterodimer (UniProt Q13564). The test can be described thus: GST pull-down and biolayer interferometry.
For another test, the target named is T1, GST-Ubc12.
T1 sequence (chain, by the resolver, N-terminal GST fusion, not carried in the letters): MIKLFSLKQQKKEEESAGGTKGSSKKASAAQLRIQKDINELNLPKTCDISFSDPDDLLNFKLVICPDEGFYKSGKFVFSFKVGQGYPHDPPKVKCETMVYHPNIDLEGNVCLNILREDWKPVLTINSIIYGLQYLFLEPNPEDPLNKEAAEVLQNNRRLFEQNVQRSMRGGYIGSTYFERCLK
Briefly: GST pull-down on glutathione beads, blot anti-GlyRS.

In the next test the target is T2, GST-APPBP1 (UniProt Q13564).
T2 sequence (looked up): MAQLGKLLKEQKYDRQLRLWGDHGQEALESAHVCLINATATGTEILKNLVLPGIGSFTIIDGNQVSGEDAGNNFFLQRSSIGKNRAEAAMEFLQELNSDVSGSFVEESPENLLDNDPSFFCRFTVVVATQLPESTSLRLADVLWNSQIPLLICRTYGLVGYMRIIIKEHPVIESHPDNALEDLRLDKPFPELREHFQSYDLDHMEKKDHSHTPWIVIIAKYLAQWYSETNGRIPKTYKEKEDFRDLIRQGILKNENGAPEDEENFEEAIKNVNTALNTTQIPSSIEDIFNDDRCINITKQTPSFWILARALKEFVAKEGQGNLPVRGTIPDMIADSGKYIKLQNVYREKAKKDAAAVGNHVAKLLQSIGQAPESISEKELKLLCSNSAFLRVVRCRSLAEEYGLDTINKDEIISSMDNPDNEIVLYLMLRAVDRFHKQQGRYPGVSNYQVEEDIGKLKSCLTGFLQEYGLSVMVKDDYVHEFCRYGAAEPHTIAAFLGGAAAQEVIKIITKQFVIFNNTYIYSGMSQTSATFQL
Described as above.

In test [4] the target is E1 for neddylation, APPBP1/UBA3 heterodimer (UniProt Q13564). The test can be described thus: biolayer interferometry, E1 immobilized, 62.5-500 nM. Background: In BLI a coated tip is dipped into the sample, and binding shifts an interference pattern.
Test [5] addresses Flag-tagged Ubc12-C111S expressed in HEK293 cells, unconjugated (UniProt P61081). The test can be described thus: co-immunoprecipitation, HEK293 cells.

B1: His-tagged full-length human GlyRS (glycyl-tRNA synthetase) (enzyme, not shown: small tags and cut ends)
chain: MDGAGAEEVLAPLRLAVRQQGDLVRKLKEDKAPQVDVDKAVAELKARKRVLEAKELALQPKDDIVDRAKMEDTLKRRFFYDQAFAIYGGVSGLYDFGPVGCALKNNIIQTWRQHFIQEEQILEIDCTMLTPEPVLKTSGHVDKFADFMVKDVKNGECFRADHLLKAHLQKLMSDKKCSVEKKSEMESVLAQLDNYGQQELADLFVNYNVKSPITGNDLSPPVSFNLMFKTFIGPGGNMPGYLRPETAQGIFLNFKRLLEFNQGKLPFAAAQIGNSFRNEISPRSGLIRVREFTMAEIEHFVDPSEKDHPKFQNVADLHLYLYSAKAQVSGQSARKMRLGDAVEQGVINNTVLGYFIGRIYLYLTKVGISPDKLRFRQHMENEMAHYACDCWDAESKTSYGWIEIVGCADRSCYDLSCHARATKVPLVAEKPLKEPKTVNVVQFEPSKGAIGKAYKKDAKLVMEYLAICDECYITEMEMLLNEKGEFTIETEGKTFQLTKDMINVKRFQKTLYVEEVVPNVIEPSFGLGRIMYTVFEHTFHVREGDEQRTFFSFPAVVAPFKCSVLPLSQNQEFMPFVKELSEALTRHGVSHKVDDSSGSIGRRYARTDEIGVAFGVTIDFDTVNKTPHTATLRDRDSMRQIRAEISELPSIVQDLANGNITWADVEARYPLFEGQETGKKETIEE
In the case of B1, the binding entry in the test with NEDD8 [1] and with NEDD8 [2] was “binds” throughout.

B2: full-length human GlyRS (enzyme)
chain: B1 chain
Turning to B2, the binding result (in test [3]; with GST-Ubc12; with GST-APPBP1; in test [4]) was “binds” throughout.

B3: V5-tagged GlyRS expressed in HEK293 cells (enzyme, not shown: small tags and cut ends)
chain: B1 chain
Turning to B3, the binding entry in test [5] was “binds”.

B4: ABD (V541-E685) of GlyRS (enzyme)
chain: VREGDEQRTFFSFPAVVAPFKCSVLPLSQNQEFMPFVKELSEALTRHGVSHKVDDSSGSIGRRYARTDEIGVAFGVTIDFDTVNKTPHTATLRDRDSMRQIRAEISELPSIVQDLANGNITWADVEARYPLFEGQETGKKETIEE
Regarding B4, the binding entry in test [3] and in test [4] was “binds” each time.

B5: ΔWHEP GlyRS (enzyme, not shown: small tags and cut ends)
chain: IVDRAKMEDTLKRRFFYDQAFAIYGGVSGLYDFGPVGCALKNNIIQTWRQHFIQEEQILEIDCTMLTPEPVLKTSGHVDKFADFMVKDVKNGECFRADHLLKAHLQKLMSDKKCSVEKKSEMESVLAQLDNYGQQELADLFVNYNVKSPITGNDLSPPVSFNLMFKTFIGPGGNMPGYLRPETAQGIFLNFKRLLEFNQGKLPFAAAQIGNSFRNEISPRSGLIRVREFTMAEIEHFVDPSEKDHPKFQNVADLHLYLYSAKAQVSGQSARKMRLGDAVEQGVINNTVLGYFIGRIYLYLTKVGISPDKLRFRQHMENEMAHYACDCWDAESKTSYGWIEIVGCADRSCYDLSCHARATKVPLVAEKPLKEPKTVNVVQFEPSKGAIGKAYKKDAKLVMEYLAICDECYITEMEMLLNEKGEFTIETEGKTFQLTKDMINVKRFQKTLYVEEVVPNVIEPSFGLGRIMYTVFEHTFHVREGDEQRTFFSFPAVVAPFKCSVLPLSQNQEFMPFVKELSEALTRHGVSHKVDDSSGSIGRRYARTDEIGVAFGVTIDFDTVNKTPHTATLRDRDSMRQIRAEISELPSIVQDLANGNITWADVEARYPLFEGQETGKKETIEE
For the molecule B5, the binding result (with GST-Ubc12; in the test with GST-APPBP1; in test [4]; with NEDD8 [2]) was “binds” in each case.
